For experiment [1], the target named is Ying Yang 1 (mouse (endogenous in primary cortical astrocytes)) (UniProt Q00899). The experiment can be described thus: co-IP; supernatant of astrocytes with or without OGD; anti-YY1 antibody (1:50) overnight, protein A/G agarose beads 2 h at 4°C; western blotting.
The target of experiment [2] is T1, Adenosine receptor A1 (mouse (endogenous in primary cortical astrocytes)) (UniProt Q60612).
T1 sequence: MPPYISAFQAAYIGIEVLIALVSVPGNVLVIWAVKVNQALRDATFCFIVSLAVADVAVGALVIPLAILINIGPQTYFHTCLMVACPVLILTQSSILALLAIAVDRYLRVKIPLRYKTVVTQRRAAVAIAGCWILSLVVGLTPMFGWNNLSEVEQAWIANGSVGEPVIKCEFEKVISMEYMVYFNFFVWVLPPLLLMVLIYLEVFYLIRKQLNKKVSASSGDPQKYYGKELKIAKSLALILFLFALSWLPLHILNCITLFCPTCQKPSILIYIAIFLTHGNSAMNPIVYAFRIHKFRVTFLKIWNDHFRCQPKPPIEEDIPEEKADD
The experiment can be described thus: co-IP; supernatant of astrocytes exposed to OGD for the indicated times; anti-A1AR antibody (1:50) overnight, protein A/G agarose beads 2 h at 4°C; western blotting.

Sequences of proteins named here, by UniProt entry; tags and fusion partners are left off.
UniProt Q00899: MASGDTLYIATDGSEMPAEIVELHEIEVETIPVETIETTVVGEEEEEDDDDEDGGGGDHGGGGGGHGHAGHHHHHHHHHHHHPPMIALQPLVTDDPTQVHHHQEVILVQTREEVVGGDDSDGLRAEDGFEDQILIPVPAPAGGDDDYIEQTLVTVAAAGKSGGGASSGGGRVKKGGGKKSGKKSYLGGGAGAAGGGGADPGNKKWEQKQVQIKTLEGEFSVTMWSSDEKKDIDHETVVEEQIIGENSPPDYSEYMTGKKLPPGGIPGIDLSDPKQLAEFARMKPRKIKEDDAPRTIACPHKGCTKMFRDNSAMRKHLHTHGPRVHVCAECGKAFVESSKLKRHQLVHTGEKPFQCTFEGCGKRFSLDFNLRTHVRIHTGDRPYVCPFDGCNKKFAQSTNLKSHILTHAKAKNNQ
UniProt O09106: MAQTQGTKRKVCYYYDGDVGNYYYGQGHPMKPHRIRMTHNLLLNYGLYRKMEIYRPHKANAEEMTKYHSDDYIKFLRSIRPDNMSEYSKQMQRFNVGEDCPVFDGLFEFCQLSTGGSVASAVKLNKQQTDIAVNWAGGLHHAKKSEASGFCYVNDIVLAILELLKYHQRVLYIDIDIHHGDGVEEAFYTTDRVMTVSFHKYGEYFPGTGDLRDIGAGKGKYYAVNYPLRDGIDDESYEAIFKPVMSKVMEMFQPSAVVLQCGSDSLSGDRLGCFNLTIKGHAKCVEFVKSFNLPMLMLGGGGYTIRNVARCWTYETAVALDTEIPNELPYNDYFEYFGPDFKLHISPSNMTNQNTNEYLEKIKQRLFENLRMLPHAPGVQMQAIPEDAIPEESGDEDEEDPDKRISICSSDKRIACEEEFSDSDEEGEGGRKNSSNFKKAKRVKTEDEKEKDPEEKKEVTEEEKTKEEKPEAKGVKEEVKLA
UniProt Q60613: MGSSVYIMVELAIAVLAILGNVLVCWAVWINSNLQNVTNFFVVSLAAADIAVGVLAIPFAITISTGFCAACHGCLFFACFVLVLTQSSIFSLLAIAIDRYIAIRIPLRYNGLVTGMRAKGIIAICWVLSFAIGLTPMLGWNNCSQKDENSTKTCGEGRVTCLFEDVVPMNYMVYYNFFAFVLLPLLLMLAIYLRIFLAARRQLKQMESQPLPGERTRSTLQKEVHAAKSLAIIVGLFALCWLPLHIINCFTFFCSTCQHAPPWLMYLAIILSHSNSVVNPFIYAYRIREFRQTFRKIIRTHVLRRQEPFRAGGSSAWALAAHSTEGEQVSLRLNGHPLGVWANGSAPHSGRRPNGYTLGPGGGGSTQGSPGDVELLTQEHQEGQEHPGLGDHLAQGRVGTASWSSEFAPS

Drawing on publication PMC7079221, this text covers binding for two substances.

These are yes or no findings as the source states them, for the method shown. Binding seen in cells or lysates may run through a third protein. Some entries that bind do so weakly or less than the wild type.

Consider “Histone deacetylase (HDAC)1 (from UniProt O09106 1-482) (enzyme)”, for which the binding entry in experiment [1] is “binds”.
As to “Adenosine receptor A2a (from UniProt Q60613 1-410)”, the binding entry in experiment [2] is recorded as “binds”.
